These are yes or no findings as the source states them, for the method shown. Binding seen in cells or lysates may run through a third protein. These calls come from enrichment with a bait or labelling near it, and not all partners need be listed.
How the values were obtained:
[1] = molecular target: FLAG-tagged PGRMC1 (human progesterone receptor membrane component 1) (human) (UniProt O00264); assay: affinity purification with mass spectrometry; FLAG-PGRMC1 stably expressed in HEK293T cells as bait; isolated mitochondria lysed, affinity purification by FLAG; prey filtered with CRAPome, fold-change threshold 2; empty-vector cells as control
[2] = molecular target: FLAG-tagged PGRMC1 (human progesterone receptor membrane component 1) (human) (UniProt O00264); assay: affinity purification with mass spectrometry; FLAG-PGRMC1 stably expressed in HepG2 cells as bait; isolated mitochondria lysed, affinity purification by FLAG; prey filtered with CRAPome, fold-change threshold 1.5; empty-vector cells as control

Sequences of proteins named here, by UniProt entry; tags and fusion partners are left off.
UniProt O00264: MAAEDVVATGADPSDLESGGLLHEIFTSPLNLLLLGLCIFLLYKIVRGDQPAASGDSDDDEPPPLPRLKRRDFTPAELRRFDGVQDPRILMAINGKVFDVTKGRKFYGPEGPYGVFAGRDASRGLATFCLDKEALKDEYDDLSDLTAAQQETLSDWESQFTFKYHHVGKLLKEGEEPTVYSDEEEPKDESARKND

- binding [1]: binds
- binding [2]: binds
B1: TBRG4 (human) (protein, UniProt Q969Z0 108-631)
chain: SHLLSEKPEDKGLLIQDAHFHQLLCLLNSQIASVWHGTLSKLLGSLYALGIPKASKELQSVEQEVRWRMRKLKYKHLAFLAESCATLSQEQHSQELLAELLTHLERRWTEIEDSHTLVTVMMKVGHLSEPLMNRLEDKCLELVEHFGPNELRKVLVMLAAQSRRSVPLLRAISYHLVQKPFSLTKDVLLDVAYAYGKLSFHQTQVSQRLATDLLSLMPSLTSGEVAHCAKSFALLKWLSLPLFEAFAQHVLNRAQDITLPHLCSVLLAFARLNFHPDQEDQFFSLVHEKLGSELPGLEPALQVDLVWALCVLQQAREAELQAVLHPEFHIQFLGGKSQKDQNTFQKLLHINATALLEYPEYSGPLLPASAVAPGPSALDRKVTPLQKELQETLKGLLGSADKGSLEVATQYGWVLDAEVLLDSDGEFLPVRDFVAPHLAQPTGSQSPPPGSKRLAFLRWEFPNFNSRSKDLLGRFVLARRHIVAAGFLIVDVPFYEWLELKSEWQKGAYLKDKMRKAVAEELAK

Source: publication PMC12973532
